Test results: PubChem BioAssay AID248 (DTP/NCI, 2004)
The list does not hold the whole screen: it is rich in T/C values a quarter to a half above the control, in often repeated tests (any T/C) and in doses without a T/C. Other doses and runs of a compound stand elsewhere. T/C: endpoint of the treated group in % of that of the vehicle group. Some entries give survivors of the animals treated and no T/C: the source holds a T/C of zero for them, seemingly a mark for toxic or unscored doses. Some doses without a T/C left all or most animals alive at the check, yet need not have been tolerated: the source hardly ever lists a survival T/C far under the control, and the zero likely stands for such cases as well. Counts of survivors are from the toxicity check (mostly the fifth day) where no day follows; animals may have died later. Schedules are NCI's codes, taken here to give the interval after Q, in days (D) or hours (H), and the number of doses after X. Some schedule codes hold Z or #, which are not explained here. Some structures stand for samples that the source files as different forms (salt, stereo form or complex); doses refer to the form tested. Some entries were tested several times; the values are given in rising order. For survival time, the PubChem record calls one and a half times the control and up active, and a quarter to a half above the control has no call in these data; cut-offs in other NCI protocols can differ. Some T/C values are followed by the survivors on the day toxicity was checked, most often the fifth; where none is given, no animal had died by that day.

System: L1210 leukemia ip in BDF1 mice, survival T/C
Assay: NCI In Vivo Anticancer Drug Screen. Data for tumor model L1210 Leukemia (intraperitoneal) in B6D2F1 (BDF1) mice
Conditions: T/C endpoint: mean survival time, higher T/C = longer survival
[1] = dose: 400.0 mg/kg/injection, schedule: Q01DX001 (ip), vehicle: Klucel (hydroxypropylcellulose) (HPC)
[2] = dose: 100.0 mg/kg/injection, schedule: Q01DX009 (ip), vehicle: saline
[3] = dose: 400.0 mg/kg/injection, schedule: Q01DX001 (ip), vehicle: saline
[4] = dose: 100.0 mg/kg/injection, schedule: Q04DX003 (ip), vehicle: saline

With NNC(=O)CNc1ccc(F)c(Cl)c1 the survivor count (dose: 200.0 mg/kg/injection, schedule: Q04DX002 (ip), vehicle: saline + alcohol) was 1 of 3 and the survivor count (dose: 400.0 mg/kg/injection, schedule: Q04DX002 (ip), vehicle: saline + alcohol) was 0 of 3.
With COc1ccc(C2C(=O)c3ccccc3C2=O)cc1OC the survivor count [1] was 0 of 6.
In the case of CC(C)=NN=C(N)N, the survivor count (dose: 480.0 mg/kg/injection, schedule: Q01DX Z (ip), vehicle: carboxymethylcellulose (CMC)) is reported as 0 of 6, the survivor count (dose: 480.0 mg/kg/injection, schedule: Q01DX Z (ip), vehicle: saline) is reported as 0 of 6 and the survivor count (dose: 960.0 mg/kg/injection, schedule: Q01DX Z (oral), vehicle: carboxymethylcellulose (CMC)) is reported as 5 of 6.
In the case of N#C/C(=C(/Cc1ccc(F)cc1)NP(=O)(c1ccccc1)c1ccccc1)c1ccc(F)cc1, the survivor count (dose: 400.0 mg/kg/injection, schedule: Q01DX001 (ip), vehicle: steroid suspending solution) is reported as 6 of 6.
CCc1cccc[n+]1Cc1ccccc1 was tested, and the survivor count [2] was 0 of 3 and the survivor count (dose: 200.0 mg/kg/injection, schedule: Q01DX009 (ip), vehicle: saline) was 0 of 3.
With CC(=O)c1cccc(N=C=O)c1 the survivor count (dose: 100.0 mg/kg/injection, schedule: Q01DX001 (ip), vehicle: saline with Tween-80) was 0 of 3, the survivor count (dose: 200.0 mg/kg/injection, schedule: Q01DX001 (ip), vehicle: saline with Tween-80) was 0 of 3 and the survivor count (dose: 400.0 mg/kg/injection, schedule: Q01DX001 (ip), vehicle: saline with Tween-80) was 0 of 3.
In the case of CCCCOC(=O)c1ccccn1, the survivor count (dose: 400.0 mg/kg/injection, schedule: Q04DX003 (ip), vehicle: saline with Tween-80) is reported as 1 of 6.
CCOC(=O)C(=O)NCc1cnccn1 was tested, and the survivor count (dose: 100.0 mg/kg/injection, schedule: Q01DX009 (ip), vehicle: water) was 3 of 6.
With CC1(C)N=C(N)N=C(N)N1c1cccc(OCc2cccc(NC(=O)CBr)c2)c1 the survivor count (dose: 80.0 mg/kg/injection, schedule: Q01DX001 (ip), vehicle: saline) was 0 of 6, the survivor count (dose: 100.0 mg/kg/injection, schedule: Q01DX001 (ip), vehicle: saline) was 1 of 4 and the survivor count (dose: 200.0 mg/kg/injection, schedule: Q01DX001 (ip), vehicle: saline) was 0 of 4. For the same compound, the survivor count [3] was 0 of 4.
In the case of CC(C)C(/C=N/N=C(N)N)=N\N=C(N)N, the survivor count (dose: 240.0 mg/kg/injection, schedule: Q01DX Z (ip), vehicle: methylcellulose (MC)) is reported as 3 of 6, the survivor count (dose: 360.0 mg/kg/injection, schedule: Q01DX Z (ip), vehicle: methylcellulose (MC)) is reported as 1 of 6 and the survivor count (dose: 480.0 mg/kg/injection, schedule: Q01DX Z (ip), vehicle: methylcellulose (MC)) is reported as 0 of 6. For the same compound, the survivor count (dose: 600.0 mg/kg/injection, schedule: Q01DX Z (oral), vehicle: methylcellulose (MC)) was 0 of 6, the survivor count (dose: 720.0 mg/kg/injection, schedule: Q01DX Z (oral), vehicle: methylcellulose (MC)) was 0 of 6 and the survivor count (dose: 840.0 mg/kg/injection, schedule: Q01DX Z (oral), vehicle: methylcellulose (MC)) was 0 of 6.
Clc1cnc(C(Cl)(Cl)Cl)c(Cl)n1 (tested in a mixture with another compound) was tested, and the survivor count (dose: 50.0 mg/kg/injection, schedule: Q01DX009 (ip), vehicle: Klucel (hydroxypropylcellulose) (HPC)) was 3 of 3, the survivor count (dose: 100.0 mg/kg/injection, schedule: Q01DX009 (ip), vehicle: Klucel (hydroxypropylcellulose) (HPC)) was 0 of 3 and the survivor count (dose: 200.0 mg/kg/injection, schedule: Q01DX009 (ip), vehicle: Klucel (hydroxypropylcellulose) (HPC)) was 0 of 3.
For CN1CCN(C(c2ccccc2)c2ccccc2)CC1, the survivor count (dose: 100.0 mg/kg/injection, schedule: Q04DX003 (ip), vehicle: Klucel (hydroxypropylcellulose) (HPC)) was 2 of 4, the survivor count (dose: 200.0 mg/kg/injection, schedule: Q04DX003 (ip), vehicle: Klucel (hydroxypropylcellulose) (HPC)) was 1 of 4 and the survivor count (dose: 400.0 mg/kg/injection, schedule: Q04DX003 (ip), vehicle: Klucel (hydroxypropylcellulose) (HPC)) was 0 of 4.
With CCCCCCCCNC12CC3CC(CC(C3)C1)C2 the survivor count (dose: 50.0 mg/kg/injection, schedule: Q04DX003 (ip), vehicle: saline) was 1 of 6, the survivor count [4] was 0 of 6 and the survivor count (dose: 200.0 mg/kg/injection, schedule: Q04DX003 (ip), vehicle: saline) was 0 of 6. For the same compound, the survivor count (dose: 400.0 mg/kg/injection, schedule: Q04DX003 (ip), vehicle: saline) was 0 of 6.
In the case of Clc1ccc(-c2cc(=[N+]3CC[N+](=c4cc(-c5ccc(Cl)cc5)ss4)CC3)ss2)cc1, the survivor count (dose: 400.0 mg/kg/injection, schedule: Q01DX009 (ip), vehicle: water) is reported as 3 of 6.
With CCn1cnc2c(C(F)(F)F)nc(N)nc21 the survivor count (dose: 75.0 mg/kg/injection, schedule: Q01DX009 (ip), vehicle: saline with Tween-80) was 2 of 6, the survivor count (dose: 75.0 mg/kg/injection, schedule: Q04DX003 (ip), vehicle: acetone) was 0 of 6 and the survivor count (dose: 100.0 mg/kg/injection, schedule: Q01DX001 (ip), vehicle: acetone) was 3 of 6. For the same compound, the survivor count (dose: 115.0 mg/kg/injection, schedule: Q01DX009 (ip), vehicle: saline with Tween-80) was 0 of 6, the survivor count (dose: 115.0 mg/kg/injection, schedule: Q04DX003 (ip), vehicle: acetone) was 0 of 6 and the survivor count (dose: 170.0 mg/kg/injection, schedule: Q04DX003 (ip), vehicle: acetone) was 0 of 6. The survivor count (dose: 200.0 mg/kg/injection, schedule: Q01DX001 (ip), vehicle: acetone) was 0 of 6 and the survivor count (dose: 400.0 mg/kg/injection, schedule: Q01DX001 (ip), vehicle: acetone) was 0 of 6.
For CCCCN=C=NCCCC, the survivor count [1] was 4 of 6.
With NC(N)=N/N=C/c1cccc([N+](=O)[O-])c1 the survivor count (dose: 120.0 mg/kg/injection, schedule: Q01DX Z (ip), vehicle: carboxymethylcellulose (CMC)) was 0 of 6.
For CCCCCCCCN, the survivor count (dose: 50.0 mg/kg/injection, schedule: Q01DX009 (ip), vehicle: saline) was 2 of 6, the survivor count [2] was 1 of 3 and the T/C (dose: 100.0 mg/kg/injection, schedule: Q04DX002 (ip), vehicle: saline, evaluated on day 20) was 94 % of control. The T/C (dose: 100.0 mg/kg/injection, schedule: Q04DX002 (ip), vehicle: saline, evaluated on day 30) was 91 [5 of 6 alive], 96, 107 % of control, the survivor count [4] was 1 of 6 and the survivor count (dose: 200.0 mg/kg/injection, schedule: Q04DX002 (ip), vehicle: saline) was 0 of 3 and 1 of 6. For the same compound, the survivor count (dose: 400.0 mg/kg/injection, schedule: Q04DX002 (ip), vehicle: saline) was 0 of 3 and 0 of 6.
With Nc1ccccc1C(O)c1ccccc1 (stereo not given) the survivor count [3] was 2 of 6.
For BrC1(Br)C2CC/C=C\CCC21 (stereo not given), the survivor count (dose: 200.0 mg/kg/injection, schedule: Q01DX009 (ip), vehicle: saline with Tween-80) was 0 of 3.
O=C(N/N=C/C=C/c1ccccc1)[C@H](O)[C@@H](O)C(=O)N/N=C/C=C/c1ccccc1 was tested, and the survivor count (dose: 200.0 mg/kg/injection, schedule: Q01DX009 (ip), vehicle: acetone) was 6 of 6.
